{"source": "the supplement of paper PMC8728848", "binders": {"B1": {"name": "PX14375D-bvu-513-34-513 (Bacteroides vulgatus) (protein)", "chain": "TEDTFWKDETDFNLALTSCYTPLKNALNGGYYGTRGVMLRIARADEVDFRNDISDVYTVNRFTNSNTNSLTQGMFYQFYNALYRTNSIMQKLEEKKEQFSTDFQNSVKGECLFIRGFYLFQLAKEFKDAPLRLTASQSPSTFPLAKSSQADIWAQAKEDLKTAASLLPITNKIGKPTQGAAYAALGKIYVYEENWQEAINVLEPLTQNPYTYKLVEDFNWNFDDTHENNAESIFELLIEDVGGTDLWGDGENINSTQSNTRPKEYAAAEVGGWYEANPTQQIMDIFWKEKDKDGNFDYRARCSVAWDYEGCTYYQRPFREVFAQDKWKTYWILKYQNWKTQKDEPAPPKSFINERAIRYADVLLMLAEAYMNKGALDTSIGYINQIRRRANLNDYSGPITKEGVFEDLVHQRAIEFFVEGERFYDLRRWGLLEQTLKTCDDTRYKNYQTGKSDNINKFNYFPIPAKELDTNPLCTPSEGW"}}, "experiment_in_all_cases": "glycan array binding signal (z-score within array); higher = stronger binding", "conditions_in_all_cases": "glycan notation: IUPAC condensed, linker removed", "key": {"[1]": {"target": "Neu5Ac(a2-6)Gal(b1-4)GlcNAc(b1-3)Gal(b1-4)GlcNAc(b1-3)Gal(b1-4)GlcNAc(b1-2)Man(a1-3)[Neu5Ac(a2-6)Gal(b1-4)GlcNAc(b1-3)Gal(b1-4)GlcNAc(b1-3)Gal(b1-4)GlcNAc(b1-2)Man(a1-6)]GalNAc", "in_short": "(§1)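 From the Consortium for Functional Glycomics database, 3228 arrays were curated, keeping only those whose protein sequence was available. Binding is given as a within-array Z-score averaged across arrays sharing a protein sequence and across linkers. Negative Z-scores can be read as non-binding.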"}, "[2]": {"target": "Neu5Ac(a2-6)Gal(b1-4)GlcNAc(b1-3)Gal(b1-4)GlcNAc(b1-3)GalNAc", "in_short": "as §1"}, "[3]": {"target": "Neu5Ac(a2-6)Gal(b1-4)GlcNAc(b1-3)Gal(b1-4)GlcNAc(b1-3)[Neu5Ac(a2-6)Gal(b1-4)GlcNAc(b1-3)Gal(b1-4)GlcNAc(b1-6)]GalNAc", "in_short": "as §1"}, "[4]": {"target": "Neu5Ac(a2-6)Gal(b1-4)GlcNAc(b1-3)Gal(b1-4)GlcNAc(b1-6)[Gal(b1-3)]GalNAc", "in_short": "as §1"}, "[5]": {"target": "Neu5Ac(a2-6)Gal(b1-4)GlcNAc(b1-3)Gal(b1-4)[Fuc(a1-3)]GlcNAc(b1-3)Gal(b1-4)[Fuc(a1-3)]GlcNAc", "in_short": "as §1"}, "[6]": {"target": "Neu5Ac(a2-6)Gal(b1-4)GlcNAc(b1-3)GalNAc", "in_short": "as §1"}, "[7]": {"target": "Neu5Ac(a2-6)Gal(b1-4)GlcNAc(b1-3)[Neu5Ac(a2-6)Gal(b1-4)GlcNAc(b1-6)]GalNAc", "in_short": "as §1"}, "[8]": {"target": "Neu5Ac(a2-6)Gal(b1-4)GlcNAc(b1-6)GalNAc", "in_short": "as §1"}, "[9]": {"target": "Neu5Ac(a2-6)Gal(b1-4)GlcNAc(b1-6)[Gal(b1-3)GlcNAc(b1-3)]Gal(b1-4)Glc", "in_short": "as §1"}, "[10]": {"target": "Neu5Ac(a2-6)Gal(b1-4)GlcNAc(b1-6)[Gal(b1-3)]GalNAc", "in_short": "as §1"}, "[11]": {"target": "Neu5Ac(a2-6)Gal(b1-4)GlcNAc6S", "in_short": "as §1"}, "Neu5Ac(a2-6)GalNAc": {"target": "Neu5Ac(a2-6)GalNAc", "in_short": "as §1"}, "[12]": {"target": "Neu5Ac(a2-6)GalNAc(b1-4)GlcNAc", "in_short": "as §1"}, "[13]": {"target": "Neu5Ac(a2-6)GalNAc(b1-4)GlcNAc6S", "in_short": "as §1"}, "[14]": {"target": "Neu5Ac(a2-6)GlcNAc(b1-4)GlcNAc", "in_short": "as §1"}, "[15]": {"target": "Neu5Ac(a2-6)GlcNAc(b1-4)GlcNAc(b1-4)GlcNAc", "in_short": "as §1"}, "Neu5Ac(a2-8)Neu5Ac": {"target": "Neu5Ac(a2-8)Neu5Ac", "in_short": "as §1"}, "[16]": {"target": "Neu5Ac(a2-8)Neu5Ac(a2-3)Gal(b1-3)GalNAc(b1-4)[Neu5Ac(a2-3)]Gal(b1-4)Glc", "in_short": "as §1"}, "[17]": {"target": "Neu5Ac(a2-8)Neu5Ac(a2-3)Gal(b1-3)GalNAc(b1-4)[Neu5Ac(a2-8)Neu5Ac(a2-3)]Gal(b1-4)Glc", "in_short": "as §1"}, "[18]": {"target": "Neu5Ac(a2-8)Neu5Ac(a2-3)Gal(b1-4)Glc", "in_short": "as §1"}, "[19]": {"target": "Neu5Ac(a2-8)Neu5Ac(a2-3)Gal(b1-4)GlcNAc", "in_short": "as §1"}, "[20]": {"target": "Neu5Ac(a2-8)Neu5Ac(a2-3)[Gal(b1-3)GalNAc(b1-4)]Gal(b1-4)Glc", "in_short": "as §1"}, "[21]": {"target": "Neu5Ac(a2-8)Neu5Ac(a2-3)[GalNAc(b1-4)]Gal(b1-4)Glc", "in_short": "as §1"}, "[22]": {"target": "Neu5Ac(a2-8)Neu5Ac(a2-8)Neu5Ac", "in_short": "as §1"}, "[23]": {"target": "Neu5Ac(a2-8)Neu5Ac(a2-8)Neu5Ac(a2-3)Gal(b1-4)Glc", "in_short": "as §1"}, "[24]": {"target": "Neu5Ac(a2-8)Neu5Ac(a2-8)Neu5Ac(a2-3)[Gal(b1-3)GalNAc(b1-4)]Gal(b1-4)Glc", "in_short": "as §1"}, "[25]": {"target": "Neu5Ac(a2-8)Neu5Ac(a2-8)Neu5Ac(a2-3)[GalNAc(b1-4)]Gal(b1-4)Glc", "in_short": "as §1"}, "[26]": {"target": "Neu5Ac(a2-8)Neu5Ac(a2-8)Neu5Ac(a2-8)Neu5Ac(a2-3)[GalNAc(b1-4)]Gal(b1-4)Glc", "in_short": "as §1"}, "[27]": {"target": "Neu5Ac(a2-8)Neu5Gc(a2-3)Gal(b1-4)GlcNAc", "in_short": "as §1"}, "[28]": {"target": "Neu5Ac(b2-6)Gal(b1-4)GlcNAc", "in_short": "as §1"}, "Neu5Ac(b2-6)GalNAc": {"target": "Neu5Ac(b2-6)GalNAc", "in_short": "as §1"}, "[29]": {"target": "Neu5Ac9Ac(a2-3)Gal(b1-3)GlcNAc", "in_short": "as §1"}, "[30]": {"target": "Neu5Ac9Ac(a2-3)Gal(b1-4)GlcNAc", "in_short": "as §1"}, "[31]": {"target": "Neu5Ac9Ac(a2-6)Gal(b1-4)GlcNAc", "in_short": "as §1"}, "[32]": {"target": "Neu5Gc(a2-3)Gal(b1-3)GlcNAc", "in_short": "as §1"}, "[33]": {"target": "Neu5Gc(a2-3)Gal(b1-3)[Fuc(a1-4)]GlcNAc", "in_short": "as §1"}, "Neu5Gc(a2-3)Gal(b1-4)Glc": {"target": "Neu5Gc(a2-3)Gal(b1-4)Glc", "in_short": "as §1"}, "[34]": {"target": "Neu5Gc(a2-3)Gal(b1-4)GlcNAc", "in_short": "as §1"}, "[35]": {"target": "Neu5Gc(a2-3)Gal(b1-4)GlcNAc(b1-3)Gal(b1-4)GlcNAc(b1-2)Man(a1-3)[Neu5Gc(a2-3)Gal(b1-4)GlcNAc(b1-3)Gal(b1-4)GlcNAc(b1-2)Man(a1-6)]Man(b1-4)GlcNAc(b1-4)GlcNAc", "in_short": "as §1"}, "[36]": {"target": "Neu5Gc(a2-3)Gal(b1-4)[Fuc(a1-3)]GlcNAc", "in_short": "as §1"}, "[37]": {"target": "Neu5Gc(a2-6)Gal(b1-4)GlcNAc", "in_short": "as §1"}, "Neu5Gc(a2-6)GalNAc": {"target": "Neu5Gc(a2-6)GalNAc", "in_short": "as §1"}, "[38]": {"target": "Neu5Gc(a2-8)Neu5Ac(a2-3)Gal(b1-4)GlcNAc", "in_short": "as §1"}, "[39]": {"target": "Neu5Gc(a2-8)Neu5Gc(a2-3)Gal(b1-4)GlcNAc", "in_short": "as §1"}, "[40]": {"target": "Neu5Gc(a2-8)Neu5Gc(a2-3)Gal(b1-4)GlcNAc(b1-3)Gal(b1-4)GlcNAc", "in_short": "as §1"}}, "note": "The other results are listed elsewhere or left out."}
{"binder": "B1", "values": [{"measurement": "glycan array binding signal (z-score)", "setting": "[1]", "value": 0.396}, {"measurement": "glycan array binding signal (z-score)", "setting": "[2]", "value": -0.231}, {"measurement": "glycan array binding signal (z-score)", "setting": "[3]", "value": 0.047}, {"measurement": "glycan array binding signal (z-score)", "setting": "[4]", "value": -0.013}, {"measurement": "glycan array binding signal (z-score)", "setting": "[5]", "value": 0.509}, {"measurement": "glycan array binding signal (z-score)", "setting": "[6]", "value": -0.41}, {"measurement": "glycan array binding signal (z-score)", "setting": "[7]", "value": -0.462}, {"measurement": "glycan array binding signal (z-score)", "setting": "[8]", "value": 0.217}, {"measurement": "glycan array binding signal (z-score)", "setting": "[9]", "value": 0.707}, {"measurement": "glycan array binding signal (z-score)", "setting": "[10]", "value": -0.381}, {"measurement": "glycan array binding signal (z-score)", "setting": "[11]", "value": -0.301}, {"measurement": "glycan array binding signal (z-score)", "setting": "Neu5Ac(a2-6)GalNAc", "value": -0.711}, {"measurement": "glycan array binding signal (z-score)", "setting": "[12]", "value": 0.371}, {"measurement": "glycan array binding signal (z-score)", "setting": "[13]", "value": 0.836}, {"measurement": "glycan array binding signal (z-score)", "setting": "[14]", "value": -0.189}, {"measurement": "glycan array binding signal (z-score)", "setting": "[15]", "value": 0.337}, {"measurement": "glycan array binding signal (z-score)", "setting": "Neu5Ac(a2-8)Neu5Ac", "value": -0.199}, {"measurement": "glycan array binding signal (z-score)", "setting": "[16]", "value": 0.443}, {"measurement": "glycan array binding signal (z-score)", "setting": "[17]", "value": 0.067}, {"measurement": "glycan array binding signal (z-score)", "setting": "[18]", "value": 0.962}, {"measurement": "glycan array binding signal (z-score)", "setting": "[19]", "value": 0.839}, {"measurement": "glycan array binding signal (z-score)", "setting": "[20]", "value": 0.514}, {"measurement": "glycan array binding signal (z-score)", "setting": "[21]", "value": -0.025}, {"measurement": "glycan array binding signal (z-score)", "setting": "[22]", "value": -0.377}, {"measurement": "glycan array binding signal (z-score)", "setting": "[23]", "value": 0.356}, {"measurement": "glycan array binding signal (z-score)", "setting": "[24]", "value": -0.008}, {"measurement": "glycan array binding signal (z-score)", "setting": "[25]", "value": 0.725}, {"measurement": "glycan array binding signal (z-score)", "setting": "[26]", "value": -0.448}, {"measurement": "glycan array binding signal (z-score)", "setting": "[27]", "value": 18.8}, {"measurement": "glycan array binding signal (z-score)", "setting": "[28]", "value": -0.245}, {"measurement": "glycan array binding signal (z-score)", "setting": "Neu5Ac(b2-6)GalNAc", "value": -0.332}, {"measurement": "glycan array binding signal (z-score)", "setting": "[29]", "value": 0.174}, {"measurement": "glycan array binding signal (z-score)", "setting": "[30]", "value": -0.566}, {"measurement": "glycan array binding signal (z-score)", "setting": "[31]", "value": -0.545}, {"measurement": "glycan array binding signal (z-score)", "setting": "[32]", "value": -0.181}, {"measurement": "glycan array binding signal (z-score)", "setting": "[33]", "value": -0.216}, {"measurement": "glycan array binding signal (z-score)", "setting": "Neu5Gc(a2-3)Gal(b1-4)Glc", "value": -0.166}, {"measurement": "glycan array binding signal (z-score)", "setting": "[34]", "value": -0.43}, {"measurement": "glycan array binding signal (z-score)", "setting": "[35]", "value": -0.275}, {"measurement": "glycan array binding signal (z-score)", "setting": "[36]", "value": -0.091}, {"measurement": "glycan array binding signal (z-score)", "setting": "[37]", "value": 0.891}, {"measurement": "glycan array binding signal (z-score)", "setting": "Neu5Gc(a2-6)GalNAc", "value": -0.168}, {"measurement": "glycan array binding signal (z-score)", "setting": "[38]", "value": -1.13}, {"measurement": "glycan array binding signal (z-score)", "setting": "[39]", "value": -0.809}, {"measurement": "glycan array binding signal (z-score)", "setting": "[40]", "value": -0.969}]}
